These are yes or no findings as the source states them, for the method shown. Some binding calls cover weakened binding; strength is not graded here. Tags and fused reporters may be left off the sequences shown.
Biological target: mouse BMAL1 (mBMAL1), GAL4 fusion from pBIND-mBmal1 (mouse) (UniProt Q9WTL8)
Test: two-hybrid; mammalian two-hybrid in NIH3T3 cells: pBIND-mBmal1 and pACT-mClock with the pGL5luc reporter, with or without pEGFP-mCry2 or pEGFP-mCry2-Mut, read 24 h after transfection

Chains of the proteins cited; added tags and fusions are not shown.
UniProt Q9WTL8: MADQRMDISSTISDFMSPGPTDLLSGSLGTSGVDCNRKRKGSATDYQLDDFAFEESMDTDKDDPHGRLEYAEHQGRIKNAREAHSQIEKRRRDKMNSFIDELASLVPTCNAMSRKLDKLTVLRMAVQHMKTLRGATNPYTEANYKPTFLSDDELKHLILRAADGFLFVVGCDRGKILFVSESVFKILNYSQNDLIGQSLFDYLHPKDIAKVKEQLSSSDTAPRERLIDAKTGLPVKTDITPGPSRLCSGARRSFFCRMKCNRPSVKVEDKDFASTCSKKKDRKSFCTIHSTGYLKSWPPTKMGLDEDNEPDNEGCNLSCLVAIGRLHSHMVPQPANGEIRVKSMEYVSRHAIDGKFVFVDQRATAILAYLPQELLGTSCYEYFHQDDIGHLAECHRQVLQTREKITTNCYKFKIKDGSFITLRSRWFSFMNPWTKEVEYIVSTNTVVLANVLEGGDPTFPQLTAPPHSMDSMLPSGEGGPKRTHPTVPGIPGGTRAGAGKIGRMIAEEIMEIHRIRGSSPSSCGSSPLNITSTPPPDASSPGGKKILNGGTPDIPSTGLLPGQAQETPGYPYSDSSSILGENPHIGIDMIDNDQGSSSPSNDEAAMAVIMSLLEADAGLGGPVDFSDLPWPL

binding: binds
B1: mouse CLOCK (mCLOCK), GAL4 fusion from pBIND-mClock (protein, UniProt O08785 1-855)
chain: MVFTVSCSKMSSIVDRDDSSIFDGLVEEDDKDKAKRVSRNKSEKKRRDQFNVLIKELGSMLPGNARKMDKSTVLQKSIDFLRKHKETTAQSDASEIRQDWKPTFLSNEEFTQLMLEALDGFFLAIMTDGSIIYVSESVTSLLEHLPSDLVDQSIFNFIPEGEHSEVYKILSTHLLESDSLTPEYLKSKNQLEFCCHMLRGTIDPKEPSTYEYVRFIGNFKSLTSVSTSTHNGFEGTIQRTHRPSYEDRVCFVATVRLATPQFIKEMCTVEEPNEEFTSRHSLEWKFLFLDHRAPPIIGYLPFEVLGTSGYDYYHVDDLENLAKCHEHLMQYGKGKSCYYRFLTKGQQWIWLQTHYYITYHQWNSRPEFIVCTHTVVSYAEVRAERRRELGIEESLPETAADKSQDSGSDNRINTVSLKEALERFDHSPTPSASSRSSRKSSHTAVSDPSSTPTKIPTDTSTPPRQHLPAHEKMTQRRSSFSSQSINSQSVGPSLTQPAMSQAANLPIPQGMSQFQFSAQLGAMQHLKDQLEQRTRMIEANIHRQQEELRKIQEQLQMVHGQGLQMFLQQSNPGLNFGSVQLSSGNSNIQQLTPVNMQGQVVPANQVQSGHISTGQHMIQQQTLQSTSTQQSQQSVMSGHSQQTSLPSQTPSTLTAPLYNTMVISQPAAGSMVQIPSSMPQNSTQSATVTTFTQDRQIRFSQGQQLVTKLVTAPVACGAVMVPSTMLMGQVVTAYPTFATQQQQAQTLSVTQQQQQQQQQPPQQQQQQQQSSQEQQLPSVQQPAQAQLGQPPQQFLQTSRLLHGNPSTQLILSAAFPLQQSTFPPSHHQQHQPQQQQQLPRHRTDSLTDPSKVQPQ

— article PMC2944120
